Data reported in patent US20050101674A1, “PPMP as a ceramide catabolism inhibitor for cancer treatment” (priority 2003, published 2005).
Some results were stated once for a whole list of compounds, not compound by compound. At least one structure is not confirmed: it was looked up by name or label, or the drawing left a doubt.

Tested on: SK-N-RA neuroblastoma cells
Assay: DIMSCAN cytotoxicity assay in SK-N-RA cells
Assay type: cell-based
Conditions: combined with 4-HPR, +96 h, synergy C.I.<1
Excerpt: In the following examples, the DIMSCAN assay is a cell survival assay, not merely an apoptosis assay, and therefore reflects cancer cell killing due to both apoptosis and necrosis. DIMSCAN correlates directly with more traditional clonogenic assays. Moreover, DIMSCAN drug resistance profiles of cell lines correlate with prior patient therapy. DIMSCAN has successfully predicted clinical activity in high-risk neuroblastoma patients for the following new agents: 13-cis-retinoic acid, BSO+L-PAM, and fenretinide. Cytotoxicity assays are performed in 96 well microplates using a semi automated Digital Image Microscopy (DIMSCAN) system that has a dynamic range of greater than 4-5 logs of cell kill. Briefly, following incubation with study drugs, fluorescein diacetate [10 μg/ml (a vital stain)] is added to the microplate and incubated for twenty minutes. Eosin-Y (800 μg/ml) is then added to quench background fluorescence in the medium and non-viable cells. The plates are then read on an inverted microscope with the relative fluorescence of each well determined by the video imaging system software designed for the DIMSCAN system. […]
Survival fraction was measured using a digital imaging fluorescence-based microscopy assay (DIMSCAN) with approximately 5 log sensitivity. […]

SMILES | Combination Index (C.I.) of cytotoxic synergy with 4-HPR
CCCCCCCCCCCCCCCC(=O)NC(CN1CCOCC1)C(O)c1ccccc1 [D,L-erythro-PPMP] | < 1
CCCCCCCCCCCCCCCC(=O)NC(CN1CCOCC1)C(O)c1ccccc1 [D,L-threo-PPMP, D,L-threo-(1-phenyl-2-hexadecanoylamino-3-morpholino-1-propanol)] | < 1
